Laboratory results reported in patent US7456192B2, “3β-amino azabicyclooctane heteroaromatic amid derivatives preparation method and therapeutic uses thereof” (Pierre Fabre Medicament, priority 2001, dated 2008).
Structures can show the parent of a compound that is named as a salt.

System: catalepsy
Assay: Cataleptic activity in rats, compound alone without methylphenidate
Details: rat

| Compound | Ratio: Catalepsy/Normalization (from i.p. ED50 values) | Ratio: Catalepsy/Normalization (from p.o. ED50 values) |
| --- | --- | --- |
| CSc1c(C(=O)N[C@@H]2C[C@H]3CC[C@@H](C2)N3Cc2ccccc2)sc2ncccc12 [Example 2, 3-Methylsulfanylthieno[2,3-b]pyridine-2-carboxylic acid (8-benzyl-8-azabicyclo[3.2.1]oct-3β-yl)amide hydrochloride] | 3.2 | – |
| COc1c(C(=O)N[C@@H]2C[C@H]3CC[C@@H](C2)N3Cc2ccccc2)oc2cccnc12 [Example 4, 3-Methoxyfuro[3,2-b]pyridine-2-carboxylic acid (8-benzyl-8-azabicyclo[3.2.1]oct-3β-yl)amide dihydrochloride] | >40 | – |
| COc1c(C(=O)N[C@@H]2C[C@H]3CC[C@@H](C2)N3Cc2ccc(Cl)cc2)sc2ncccc12 [Example 8, 3-Methoxythieno[2,3-b]pyridine-2-carboxylic acid [8-(4-chlorobenzyl)-8-azabicyclo[3.2.1]oct-3β-yl]amide hydrochloride] | >30 | – |
| COc1c(C(=O)N[C@@H]2C[C@H]3CC[C@@H](C2)N3CC2CCCCC2)sc2ncccc12 [Example 10, 3-Methoxythieno[2,3-b]pyridine-2-carboxylic acid [8-cyclohexylmethyl-8-azabicyclo[3.2.1]oct-3β-yl]amide fumarate] | >8 | – |
| COc1c(C(=O)N[C@@H]2C[C@H]3CC[C@@H](C2)N3Cc2ccc(F)cc2)sc2ncccc12 [Example 11, 3-Methoxythieno[2,3-b]pyridine-2-carboxylic acid [(8-(4-fluorobenzyl)-8-azabicyclo[3.2.1]oct-3β-yl)]amide hydrochloride] | >129 | – |
| COc1c(C(=O)N[C@@H]2C[C@H]3CC[C@@H](C2)N3Cc2ccsc2)sc2ncccc12 [Example 12, 3-Methoxythieno[2,3-b]pyridine-2-carboxylic acid [8-thiophen-3-ylmethyl-8-azabicyclo[3.2.1]oct-3β-yl]amide hydrochloride] | >32 | – |
| COc1c(C(=O)N[C@@H]2C[C@H]3CC[C@@H](C2)N3Cc2ccccc2)sc2nccnc12 [Example 27, 3-Methoxythieno[2,3-b]pyrazine-2-carboxylic acid (8-benzyl-8-azabicyclo[3.2.1]oct-3β-yl)amide hydrochloride] | – | 14 |
| COc1c(C(=O)N[C@@H]2C[C@H]3CC[C@@H](C2)N3Cc2ccc(F)cc2)sc2nccnc12 [Example 29, 3-Methoxythieno[2,3-b]pyrazine-2-carboxylic acid [8-(4-fluorobenzyl)-8-azabicyclo[3.2.1]oct-3β-yl]amide hydrochloride] | – | 15.6 |
| CSc1c(C(=O)N[C@@H]2C[C@H]3CC[C@@H](C2)N3Cc2ccc(Cl)cc2)sc2nccnc12 [Example 31, 3-Methylsulfanylthieno[2,3-b]pyrazine-2-carboxylic acid [8-(4-chlorobenzyl)-8-azabicyclo[3.2.1]oct-3β-yl]amide hydrochloride] | – | 4 |
| CSc1c(C(=O)N[C@@H]2C[C@H]3CC[C@@H](C2)N3Cc2ccc(F)cc2)sc2nccnc12 [Example 32, 3-Methylsulfanylthieno[2,3-b]pyrazine-2-carboxylic acid [8-(4-fluorobenzyl)-8-azabicyclo[3.2.1]oct-3β-yl]amide hydrochloride] | – | 4 |
| COc1cccc(C(=O)N[C@@H]2C[C@H]3CC[C@@H](C2)N3Cc2ccccc2)c1OC [Tropapride, reference compound] | 0.9 | – |
